In PubChem BioAssay AID638 (SRMLSC, 2007):
In all, about 1,300 compounds went through this assay and about 65 (5%) were called active.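 The calls were made as follows: active = growth inhibition reaching a set limit at one or more tested doses; inactive = the rest.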 The list shows a part of the results. Measured potencies and affinities stand elsewhere.

Experiment: wild-type E. coli BW25113 antibacterial activity – OD615, dose response (AID 638)
Conditions: at 100 µM (top of the series) unless noted
Summary of the method: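 assay system = wild-type Escherichia coli strain BW25113 growth | medium = Kanamycin-supplemented LB broth | measured by = optical density (absorbance) at 615 nm | timing = bacterial exposure to compound 20 h at 37 °C | doses = compound concentration series | measure = IC50 from 4-parameter logistic, bounds fixed 0–100% | controls = chloramphenicol 30 µM control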
With `Cc1nn(-c2nc3ccccc3[nH]2)c(N)c1-c1ccccc1` the growth inhibition was inactive: -4.59%. For `CCOC(=O)c1cc(C)n(S(=O)(=O)c2ccc(C)cc2)c1C`, the growth inhibition was inactive: 8.21%. With `O=C1OC(c2ccc(O)cc2)(c2ccc(O)cc2)c2ccccc21` the growth inhibition was active: 24.6%. In the case of `COc1cccc(-c2cc(C(=O)N3CC4(C)CC3CC(C)(C)C4)no2)c1` (stereo not drawn), the growth inhibition is reported as inactive: 6.59%. For `CCN(C(=O)c1cc2cc3ccc(C)cc3nc2o1)c1ccc(OC)cc1`, the growth inhibition was inactive: 3.29%. For `O=C(Cn1c2c(c(-c3ccccc3)cc1=O)CCCC2)N1CCCCCC1`, the growth inhibition was inactive: 3.36%. In the case of `Cc1cc(C)n(-c2nc3ccccc3nc2N2CCCCCC2)n1`, the growth inhibition is reported as inactive: 1.79%. In the case of `CCn1c2ccccc2c2nnc(SCc3ccccc3)nc21`, the growth inhibition is reported as inactive: -1.82%. For `COc1ccccc1N1CCN(C(=O)c2cc(-c3ccc(Br)cc3)on2)CC1`, the growth inhibition was inactive: -4.65%. With `CC1CCC(C(C)C)C(OC(=O)COC(=O)c2ccc(=O)[nH]c2)C1` (stereo not drawn) the growth inhibition was inactive: 1.53%. For `CCCN(CCC)C(=O)CSc1nc2ccccc2c(=O)n1C1CCCC1`, the growth inhibition was inactive: -6.85%. For `COc1cccc(-c2csc(N3CCN(C(=O)C4CCCCC4)CC3)n2)c1`, the growth inhibition was inactive: -4.78%. For `CN1CCN(CC(=O)N2CCn3c4c(c5cc(C6CCCCC6)ccc53)CCCC42)CC1` (stereo not drawn), the growth inhibition was inactive: 14.6%. For `Cn1c(=O)c(C(=S)NC(=O)C2CC2)c(N)n(Cc2ccccc2)c1=O`, the growth inhibition was inactive: -3.57%. With `CN(Cc1ccccc1)C(=O)CSc1nc2ccccc2c(=O)n1Cc1ccco1` the growth inhibition was inactive: 1.19%. For `CCS(=O)(=O)n1nc(-c2ccccc2)nc1SCc1ccccc1`, the growth inhibition was inactive: -2.71%. With `OC1(c2cccc(C(F)(F)F)c2)CCN(c2ncnc3c2[nH]c2ccc(F)cc23)CC1` the growth inhibition was inactive: 0.43%. For `Oc1c(C(c2cccs2)N2CCN(c3cccc(Cl)c3)CC2)sc2ncnn12` (stereo not drawn), the growth inhibition was inactive: -3.75%. For `CCCC1=C(C(=O)OCC)C(c2cc(Cl)cc(OC)c2OCC(=O)OCC)NC(=O)N1` (stereo not drawn), the growth inhibition was inactive: 0.91%. In the case of `CC1CC(C)CN(C(=O)CSc2nnc(-c3ccc(Cl)s3)o2)C1` (stereo not drawn), the growth inhibition is reported as inactive: 7.72%. For `COc1ccc(/C(O)=C2\C(=O)C(=O)N(CC3CCCO3)C2c2cc(OC)ccc2OC)cc1` (stereo not drawn), the growth inhibition was inactive: -4.82%. For `CCOC(=O)c1cn(CC)c2cc(N3CCOCC3)c(F)cc2c1=O`, the growth inhibition was inactive: 4.05% [at 50 µM]. For `CCc1c(C)nc2cc(-c3cc(OC)cc(OC)c3)nn2c1N1CCCC1`, the growth inhibition was inactive: 0.39%. In the case of `N#Cc1nc(COc2ccccc2F)oc1NCCc1ccccc1`, the growth inhibition is reported as inactive: 2.33%. For `O=C(CCc1nc(-c2ccccc2F)no1)Nc1ccc(Oc2ccccc2)cc1`, the growth inhibition was inactive: 5.17%. In the case of `COC(=O)c1c(NC(=O)c2ccc(C)o2)sc2c1CCCCC2`, the growth inhibition is reported as inactive: 5.05%. With `CC(C)(C)c1ccc(OCc2nc(-c3ccccn3)no2)c(Br)c1` the growth inhibition was inactive: 2.12%. For `O=C(OC1CCCCC1)c1ccc(NC(=O)c2ccco2)cc1`, the growth inhibition was inactive: 2.7%. For `c1ccc(CSc2nnc(-c3cccs3)n2Cc2ccco2)cc1`, the growth inhibition was inactive: 6.33%. In the case of `CCCCn1c(=O)n(Cc2cccc(F)c2)c(=O)c2c1ncn2Cc1ccco1`, the growth inhibition is reported as inactive: -0.15%. For `CC1=CC(C)(C)N(C(=O)CSc2nnc(-c3ccccc3)o2)c2ccc(C)cc21`, the growth inhibition was inactive: -24.4%. In the case of `CCOC(=O)c1cc(CC)sc1NC(=O)Cc1ccsc1`, the growth inhibition is reported as inactive: 7.24%. For `COc1ccc(Oc2cn[nH]c2-c2ccc(O)cc2O)cc1`, the growth inhibition was inactive: 13.1%. With `Cc1cc(/C=C(/C#N)c2cccc(F)c2)c(C)n1-c1cccnc1` the growth inhibition was inactive: -2.11%. For `CN(c1ccccc1)S(=O)(=O)c1ccc(C(=O)Nc2nnc(-c3ccc(F)cc3)o2)cc1`, the growth inhibition was inactive: -11.8%. For `COc1cccc(-c2nnc(NC(=O)c3ccc(S(=O)(=O)N(CC(C)C)CC(C)C)cc3)o2)c1`, the growth inhibition was inactive: -1.41%. With `Cc1cc(C)c2[nH]c(=O)c(C(c3nnnn3CC3CCCO3)N3CCCC(C)C3)cc2c1` (stereo not drawn) the growth inhibition was inactive: 8.66%. For `O=C(O)CCC(=O)N1CCc2cc(S(=O)(=O)N3CCC(Cc4ccccc4)CC3)ccc21`, the growth inhibition was inactive: -5.1%. For `COc1ccc(-c2[nH]ncc2-c2ccc(Cl)cc2)c(O)c1`, the growth inhibition was inactive: 19.1%. For `CCn1c(C(=O)OC)cc2c1ccn2-c1ccc(F)cc1`, the growth inhibition was inactive: 2.37%. For `Cc1ccc2cc(CN(Cc3ccccc3)Cc3nnnn3C3CCCC3)c(=O)[nH]c2c1`, the growth inhibition was inactive: -12.1%. For `Cn1c(-c2ccc3c(c2)OCO3)cnc1N`, the growth inhibition was inactive: -8.44%. In the case of `CCOc1cc(C)c(C(C)C)cc1S(=O)(=O)N1CC(C)OC(C)C1` (stereo not drawn), the growth inhibition is reported as inactive: 15.5%. For `CC(C)Cn1c(N)c(C(=O)NCc2cccs2)c2nc3ccccc3nc21`, the growth inhibition was inactive: 11.5%. For `Cc1ccc(Cn2ncn3c(cc4ccccc43)c2=O)cc1`, the growth inhibition was inactive: 5.85%. With `CCOC(=O)c1cnc(-n2nc(C)cc2C)nc1N(CC)CC` the growth inhibition was inactive: 4.97%. For `O=C(C1CC1)N1CCc2cc(S(=O)(=O)NCCC3=CCCCC3)ccc21`, the growth inhibition was inactive: 9.41%. For `C=C(C)Cn1c(N2CCC(Cc3ccccc3)CC2)nc2c1c(=O)[nH]c(=O)n2C`, the growth inhibition was inactive: -2.32%. With `Cc1nn(-c2ccccc2)c2sc(-c3n[nH]c(=S)o3)cc12` the growth inhibition was inactive: -8.44%. With `Cn1c(CSc2nnc(SCc3ccccc3)s2)nc2ccccc21` the growth inhibition was inactive: -13.8%. In the case of `Cc1ccc(C(=O)Nc2nc(COc3ccccc3)cs2)s1`, the growth inhibition is reported as inactive: -6.21%. For `CC(C)N(Cc1nc(-c2ccc(Cl)cc2)no1)C(=O)CCC1CCCC1`, the growth inhibition was inactive: 7.13%. In the case of `CC1CCCCN1S(=O)(=O)c1ccc(C(=O)Nc2nnc(-c3cccs3)o2)cc1` (stereo not drawn), the growth inhibition is reported as inactive: 2.23%. For `CC(C)(C)N1C(=O)Cc2c1nc(N)c1c(N)nc(N3CCCCC3CO)c(C#N)c21` (stereo not drawn), the growth inhibition was inactive: -2.72%. For `C=CCN(CC=C)S(=O)(=O)c1ccc2nc(NC(=O)C(C)C)sc2c1`, the growth inhibition was inactive: 2.22%. For `COc1ccc(-c2noc(Cc3ccc(Cl)cc3)n2)cc1OC`, the growth inhibition was inactive: 7.9%. In the case of `COC(=O)c1ccccc1NC(=O)N1c2ccccc2CC1C` (stereo not drawn), the growth inhibition is reported as inactive: 3.49%. For `CSCc1nnc(NC(=O)c2ccc(S(=O)(=O)N(CC(C)C)CC(C)C)cc2)o1`, the growth inhibition was inactive: 9.06%. In the case of `Cc1cccn2c(=O)c3cc(C(=O)NCc4ccco4)c(=N)n(CCc4ccccc4)c3nc12`, the growth inhibition is reported as inactive: -3.69%. For `COc1ccc(-c2noc(CCCc3ccccc3)n2)cc1OC`, the growth inhibition was inactive: 3.3%. For `Cc1ccc(S(=O)(=O)Nc2cccc3ncccc23)s1`, the growth inhibition was inactive: -6.86%. With `CCCc1nc(SC2CCCC2)c2c(=O)n(C)c(=O)n(C)c2n1` the growth inhibition was inactive: 9.04%. In the case of `O=C(Nc1cccc(Cl)c1)N(CCN1CCOCC1)Cc1cccc(Cl)c1`, the growth inhibition is reported as inactive: 18.8% [at 50 µM]. In the case of `O=c1n(Cc2ccccc2)c2cc(Cl)cnc2n1Cc1ccccc1`, the growth inhibition is reported as inactive: 6.2%. In the case of `O=S(=O)(Nc1ccc2oc(-c3ccccc3)nc2c1)c1ccccc1`, the growth inhibition is reported as inactive: -12.9%. With `O=C(NC1CCCCC1)c1nc2c(nnn2Cc2ccccc2Cl)c(=O)[nH]1` the growth inhibition was inactive: 13.2%. For `CCCCOn1c(C)c(C(=O)OCC)c2c3nonc3ccc21`, the growth inhibition was inactive: 1.71%. In the case of `c1ccc(CSc2nnc(-c3ccco3)c(-c3ccco3)n2)cc1`, the growth inhibition is reported as inactive: -2.9%. In the case of `Cc1cccc(Nc2nc(NCc3ccco3)nc(N3CCOCC3)n2)c1`, the growth inhibition is reported as inactive: -6.73%. With `CCOc1ccccc1NC(=O)c1cc(CC(C)C)oc1C` the growth inhibition was inactive: 5.67%. In the case of `Cc1ccc(OCc2nc(C#N)c(N3CCN(Cc4ccccc4)CC3)o2)cc1`, the growth inhibition is reported as inactive: -9.19%. For `COc1cc(C(=O)Nc2nc(-c3cccs3)cs2)cc(OC)c1OC`, the growth inhibition was inactive: -9.75%. With `Brc1ccc(CSc2nnc(-c3cnccn3)n2Cc2ccco2)cc1` the growth inhibition was inactive: 4.47%. With `COc1ccc(NS(=O)(=O)c2ccc3oc4ccccc4c3c2)cn1` the growth inhibition was inactive: 13.9%. With `CC1(C)CC2CC(C)(CN2C(=O)c2cc(-c3ccccc3O)on2)C1` (stereo not drawn) the growth inhibition was inactive: -3.86%. For `COc1ccccc1C1CC(c2ccc(Cl)cc2)Nc2ncnn21` (stereo not drawn), the growth inhibition was inactive: 7.26%. For `CCCCOc1[nH]c2nc(-c3ccco3)n(Cc3ccco3)c(=N)c2c1C#N`, the growth inhibition was inactive: 5.8%. For `CCOC(=O)Cc1csc(NC(=O)c2csc3c2CCCC3)n1`, the growth inhibition was inactive: 4.05%. In the case of `Cc1ccc(NC(=O)c2nnn(-c3cc(C)cc(C)c3)c2N)cc1`, the growth inhibition is reported as inactive: -3.73%. In the case of `Cc1cc(N2CCCCCC2)nc(-c2ccccc2O)n1`, the growth inhibition is reported as inactive: -1.48%. For `COC(=O)c1[nH]c2ccc(C)cc2c1NS(=O)(=O)c1ccc(F)c(C)c1`, the growth inhibition was inactive: 5.83%. With `Fc1ccc(CNc2nc(-c3ccco3)cc(C(F)(F)F)n2)cc1` the growth inhibition was inactive: 8.92%. In the case of `Cc1cccc(-n2ncc3c(NCc4ccc5c(c4)OCO5)ncnc32)c1`, the growth inhibition is reported as inactive: 5.75%. For `CCOc1ccc(N(CC(=O)Nc2cccc(OC)c2)S(=O)(=O)c2c(C)noc2C)cc1`, the growth inhibition was inactive: -23.6%. With `COc1ccc(Cl)cc1CN1CCN(c2nc(C)cc(C)c2C#N)CC1` the growth inhibition was inactive: 12%. With `CCOC(=O)c1nnn(-c2nonc2-n2cccc2)c1CN1CCC(C)CC1` the growth inhibition was inactive: 12.2%. With `CCCCC(=O)Nc1cccc(-c2nnc(-c3ccccc3)o2)c1` the growth inhibition was inactive: 16.4%. For `N#Cc1ccc(CSc2nnc(-c3cccs3)n2-c2ccccc2)cc1`, the growth inhibition was inactive: 15.4%. With `N#C/C(=C\c1ccco1)Sc1nc2ccccc2s1` the growth inhibition was inactive: 9.99%. For `CC(=O)Nc1nc2ccccc2n1Cc1ccccc1C`, the growth inhibition was inactive: 2.76%. With `O=C(Nc1ccc(Br)c(Cl)c1)c1ccco1` the growth inhibition was inactive: 2.9%. For `O=C(CCCOc1ccc(Cl)cc1Cl)N1CCN(c2ccccn2)CC1`, the growth inhibition was inactive: -2.42%. For `CC1CCCN(S(=O)(=O)c2ccc(C(=O)Nc3nnc(-c4ccccc4Cl)o3)cc2)C1` (stereo not drawn), the growth inhibition was inactive: 7.65%.
